Experimental data published in PubChem BioAssay (Tox21).
Values joined by “and” are separate entries in the source; they are usually repeats but may differ in a detail not shown here. Equal values may be shown once. The inconclusive results got no clear call from the source; some entries with a clear call stand among them for comparison. Potencies of inconclusive entries are doubtful fits and often do not repeat. More than one record can exist for a structure, and the calls need not agree. Active and inactive are the calls of the source. Calls follow the shape of the dose curve; as a rule, active = well fitted inhibition curve with a large enough effect in the repeat runs; inconclusive = weak or mixed curves; inactive = no such curve, though single readings can be large or run the other way.

Chains of the proteins cited; added tags and fusions are not shown.
UniProt P10635, whole entry, looked up: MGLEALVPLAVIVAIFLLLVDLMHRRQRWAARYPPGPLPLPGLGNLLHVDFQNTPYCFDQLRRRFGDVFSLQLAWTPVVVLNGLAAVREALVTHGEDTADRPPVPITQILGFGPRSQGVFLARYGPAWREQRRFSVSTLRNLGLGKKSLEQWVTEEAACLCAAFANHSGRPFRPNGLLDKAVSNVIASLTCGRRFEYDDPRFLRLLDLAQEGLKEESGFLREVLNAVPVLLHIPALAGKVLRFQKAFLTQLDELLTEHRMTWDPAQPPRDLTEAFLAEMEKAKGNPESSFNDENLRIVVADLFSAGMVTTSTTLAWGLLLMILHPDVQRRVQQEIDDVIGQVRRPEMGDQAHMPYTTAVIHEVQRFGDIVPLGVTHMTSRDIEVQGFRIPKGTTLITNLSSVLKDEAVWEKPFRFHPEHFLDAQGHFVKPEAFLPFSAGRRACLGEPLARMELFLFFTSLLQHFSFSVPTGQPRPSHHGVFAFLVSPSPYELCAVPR

Target: Cytochrome P450 2D6 (Homo sapiens) (UniProt P10635)
Test: Cytochrome P450 Family 2 Subfamily D Member 6 (CYP2D6) small molecule antagonists: luciferase reporter qHTS assay (AID 1671196); also: nearly all actives have a fitted effect of over 50% in size
Details: P450-Glo CYP2D6 enzyme assay, luciferin luminescence, 1 h; series mostly up to 115 µM
In short: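 Quantitative HTS of Tox21 chemicals against CYP2D6 using a luminescent proluciferin substrate. After NADPH addition, 1 h room-temperature reaction; luminescence recorded 20 min post detection reagent.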
Potency is read from the fitted curve at half-maximal effect.

Row | SMILES | Potency
1 | Nc1ccc(-c2ccccc2)cc1 | inconclusive: 46 µM [inhibitor, partial curve]
2 | CCN(CC)c1c([N+](=O)[O-])cc(C(F)(F)F)c(N)c1[N+](=O)[O-] | inconclusive: 39.9 µM [inhibitor, partial curve]
3 | Nc1ccc([N+](=O)[O-])cc1[N+](=O)[O-] | inconclusive: 38.9 µM [inhibitor, partial curve, poor fit]
4 | BrCCCCBr | inactive
5 | CCCC1COC(Cn2cncn2)(c2ccc(Cl)cc2Cl)O1 (centres undefined) | active: 32.3 µM and active: 35.6 µM
6 | CN(C)c1ccc(N=Nc2ccccc2)cc1 | active: 40 µM
7 | CCCCC(C#N)(Cn1cncn1)c1ccc(Cl)cc1 (centres undefined) | inconclusive: 35.5 µM [inhibitor, partial curve] and inconclusive: 44.8 µM [inhibitor, partial curve]
8 | Nc1ccc(Cc2ccc(N)c(Cl)c2)cc1Cl | inconclusive: 86.4 µM [inhibitor, partial curve, poor fit]
9 | COP(=S)(OC)SCn1nnc2ccccc2c1=O | active: 55.3 µM and active: 39.9 µM
10 | N#Cc1cc([N+](=O)[O-])ccc1N | inactive
11 | O=S(=O)(O)C(F)(F)C(F)(F)C(F)(F)C(F)(F)F | active: 59.8 µM
12 | Nc1ccc(N=Nc2ccccc2)cc1 | inconclusive: 43.1 µM [inhibitor]
13 | CCCCN(CCCC)C(=S)[S-].CCCCN(CCCC)C(=S)[S-].[Zn+2] | inconclusive: 63.3 µM [inhibitor, partial curve]
14 | O=C(c1ccccc1)C(Cl)Cl | inconclusive: 31.7 µM [inhibitor, full curve]

Numbers 11 through 12, quoted:
Row | SMILES | Potency
11 | O=S(=O)(O)C(F)(F)C(F)(F)C(F)(F)C(F)(F)F | active: 59.8 µM
12 | Nc1ccc(N=Nc2ccccc2)cc1 | inconclusive: 43.1 µM [inhibitor]
